PubChem BioAssay AID686943 | Drosophila RNAi Screening Center, 2013

- Aim: 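Search across the genome for regulators of signalling from receptor tyrosine kinase to ERK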 (primary screen)
- Cells: Drosophila S2R+ haemocyte-like cells expressing YFP-tagged ERK (Rolled)
- Knock-down reagent: long dsRNA against Drosophila genes
- Treatment: insulin stimulation versus unstimulated cells; dose and duration not given
- Detection: 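Antibody staining for doubly phosphorylated ERK divided by ERK-YFP signal, as plate z-scores, in insulin-treated and untreated cells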
- Reading the numbers: replicate 1, z-score of dpERK with insulin and replicate 2, z-score of dpERK with insulin: higher = more active ERK per ERK-YFP after insulin; replicate 1, z-score of dpERK under basal conditions: higher = more basal active ERK per ERK-YFP; replicate 1, z-score of ERK-YFP with insulin: higher = more YFP-tagged ERK signal
The deposit covers about 23,000 reagents; shown is a random part of those that have a named target and a result. 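Extra replicates exist only for a retested subset of genes; insulin dose and duration not given; both raised and lowered dpERK matter.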 A plus sign joins genes that one reagent is predicted to hit. Not stated in the record: the amount of reagent, the time to read-out.

replicate 1, z-score of dpERK with insulin	replicate 2, z-score of dpERK with insulin	replicate 1, z-score of dpERK under basal conditions	replicate 1, z-score of ERK-YFP with insulin	target	amplicon
-0.09	1.22	-0.13	0.08	Lipt2	DRSC12338
-0.27	0.32	0.21	0.11	Lipt2	DRSC22610
0.92	0.68	0.56	0.77	Sytbeta	DRSC10009
-0.27	-0.53	0.01	-0.43	Sytbeta	DRSC10351
0.04	0.17	-0.63	0.12	CG7791	DRSC04891
-0.9	0		0.08	CG18808	DRSC08539
-0.26	-0.36	-0.1	-0.33	beta-Spec	DRSC20311
-0.14	-0.74	0.88	-0.02	Ptp4E	DRSC18701
-0.48	-0.83	0.32	0.05	CG4646	DRSC06876
1.08	0.2	0.83	0.32	CG13028	DRSC09908
0.89	0.69	1.32	0.08	CG10347	DRSC19352
1.14	-1.01	-0.29	-0.16	CG16758	DRSC07984
0.02	-0.17	-0.01	0.26	CG16758	DRSC08492
0.01	0.09	5.54	-0.72	CG11920	DRSC14439
0.07	0.5	-0.06	-0.3	ETHR	DRSC15915
0.5	-0.13	-0.29	0.14	O-fut2	DRSC18608
0.42	-0.43	-0.13	-0.2	CG15390	DRSC00404
-0.37	-0.48	-0.05	0.94	btd	DRSC18747
-0.29	-0.02	-0.01	0.23	lncRNA:CR43491	DRSC19184
-0.14	-1.91	0.19	-0.05	CG11550	DRSC14326
0.09	0.15	1.35	-1.54	CG9541	DRSC03257
-0.14	0.58	-0.37	-0.21	sip2	DRSC03154
0.25	0.39	0.92	-1.14	Ada1-1 + Ada1-2	DRSC01220
-0.38	1.03	0.65	-0.71	Ada1-1 + Ada1-2	DRSC01222
-0.33	0.59	-0.05	1.33	Mnn1	DRSC03368
0.39	-0.19	-0.08	0.34	CG15529	DRSC15066
0.34	-0.55	0.15	0.19	Arfrp1	DRSC18417
0.2	-0.66	2.36	0.13	PPP4R2r	DRSC18695
-0.41	0.48	-0.48	0.75	PPP4R2r	DRSC21503
0.08	0.01	0.11	0.31	CG13423	DRSC06386
0.41	0.58	1.09	1.35	EMRE	DRSC06686
0	1.56	0.58	0	Tnks	DRSC14154
-0.21	-0.6	2.36	0.74	Pgcl	DRSC18815
-0.87	-0.15	-0.13	0.66	CG15296	DRSC17983
-0.04	-0.11	0.1	0.12	CG5721	DRSC06945
-6.29	-5.58	-3.91	-3.14	Ras85D	DRSC16814
-0.03	0.18	0.87	0.08	lsn	DRSC16081
-0.56	-1.12	-0.04	0.91	CG14609	DRSC12553
-2.45	-1.02	-3.28	-2.93	RpLP2	DRSC07539
-0.18	-0.51	-0.4	0.06	LamC	DRSC07453
0.35	0.54	0.35	-0.2	CG33306	DRSC01899
0.67	-0.13	0.47	0.44	Naa40	DRSC16265
-0.03	0.03	-0.54	-0.11	GstE9	DRSC06679
0.05	0.51	0	-0.11	CG34249 (retired record)	DRSC09431
-0.02	-0.46	-0.97	0.08	CG15570	DRSC18058
0.21	0.88	-0.39	0.85	Mtpalpha	DRSC01994
0.86	0.5	1.89	-0.21	PCID2	DRSC10822
-0.27	0.07	1.84	0.33	mib2	DRSC02623
1.51	0.59	-0.62	0.6	Dred	DRSC11057
0.13	0.11	-0.37	-1.12	Dred	DRSC11059
0.39	-0.25	-0.46	-0.08	CG7737	DRSC07033
0.34	0.43	1.01	-0.54	Hr83	DRSC12521
0.99	-0.03	-0.55	1.36	Osi9	DRSC12278
-0.02	0.34	0.03	0.38	elgi	DRSC10242
0.13	-0.09	2.27	-0.31	CG14315	DRSC14794
0.19	-0.24	-0.39	0.02	CG33969	DRSC11777
-0.33	0.23	-0.07	0.28	CG6484	DRSC06991

8 successive entries already listed, quoted:
replicate 1, z-score of dpERK with insulin	replicate 2, z-score of dpERK with insulin	replicate 1, z-score of dpERK under basal conditions	replicate 1, z-score of ERK-YFP with insulin	target	amplicon
0.67	-0.13	0.47	0.44	Naa40	DRSC16265
-0.03	0.03	-0.54	-0.11	GstE9	DRSC06679
0.05	0.51	0	-0.11	CG34249 (retired record)	DRSC09431
-0.02	-0.46	-0.97	0.08	CG15570	DRSC18058
0.21	0.88	-0.39	0.85	Mtpalpha	DRSC01994
0.86	0.5	1.89	-0.21	PCID2	DRSC10822
-0.27	0.07	1.84	0.33	mib2	DRSC02623
1.51	0.59	-0.62	0.6	Dred	DRSC11057
